In PubChem BioAssay (EPA / NIEHS):
Several values for one entry are separate records, joined by “and”; a condition that tells them apart may be missing. Identical values can stand only once. The shares of active, inactive and inconclusive entries below differ from those in the screen. For some of these results: A potency beside an inconclusive call is a rough fit, not a confirmed value. Activity calls are given as the source filed them. Rule for the calls: active = hit-call score of the fitted dose curve at least 0.9, where 1 is the maximum; inconclusive = response in the unintended direction; inactive = score below 0.9.

The chains behind the UniProt entries cited, without tags or fusion partners. Where a name states a change or a piece, a line headed by the entry shows the natural chain unless it says otherwise.
UniProt P10828: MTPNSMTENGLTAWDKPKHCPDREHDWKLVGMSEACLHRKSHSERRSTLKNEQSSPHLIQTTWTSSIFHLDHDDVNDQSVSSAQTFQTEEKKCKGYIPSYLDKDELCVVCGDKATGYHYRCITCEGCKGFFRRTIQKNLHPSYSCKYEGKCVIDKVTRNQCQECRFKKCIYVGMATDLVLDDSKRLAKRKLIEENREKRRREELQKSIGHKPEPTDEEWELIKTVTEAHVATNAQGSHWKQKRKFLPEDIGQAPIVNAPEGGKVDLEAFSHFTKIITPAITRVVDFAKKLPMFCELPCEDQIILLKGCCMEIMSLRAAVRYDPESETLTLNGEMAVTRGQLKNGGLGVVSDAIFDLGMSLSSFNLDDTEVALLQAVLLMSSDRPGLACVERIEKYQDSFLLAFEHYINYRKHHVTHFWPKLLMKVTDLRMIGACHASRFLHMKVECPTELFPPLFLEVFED
UniProt Q9PVE4: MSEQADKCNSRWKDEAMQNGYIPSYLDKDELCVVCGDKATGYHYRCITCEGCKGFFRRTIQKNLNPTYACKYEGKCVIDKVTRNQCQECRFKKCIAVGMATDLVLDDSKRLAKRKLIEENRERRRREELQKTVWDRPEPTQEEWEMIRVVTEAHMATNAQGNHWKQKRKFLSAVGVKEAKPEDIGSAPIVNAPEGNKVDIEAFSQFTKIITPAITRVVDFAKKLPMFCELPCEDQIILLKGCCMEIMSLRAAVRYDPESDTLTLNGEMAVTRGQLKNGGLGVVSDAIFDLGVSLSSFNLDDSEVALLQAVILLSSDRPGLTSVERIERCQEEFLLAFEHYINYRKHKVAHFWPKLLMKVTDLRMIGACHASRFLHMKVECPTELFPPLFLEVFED
UniProt P06212, whole entry, looked up: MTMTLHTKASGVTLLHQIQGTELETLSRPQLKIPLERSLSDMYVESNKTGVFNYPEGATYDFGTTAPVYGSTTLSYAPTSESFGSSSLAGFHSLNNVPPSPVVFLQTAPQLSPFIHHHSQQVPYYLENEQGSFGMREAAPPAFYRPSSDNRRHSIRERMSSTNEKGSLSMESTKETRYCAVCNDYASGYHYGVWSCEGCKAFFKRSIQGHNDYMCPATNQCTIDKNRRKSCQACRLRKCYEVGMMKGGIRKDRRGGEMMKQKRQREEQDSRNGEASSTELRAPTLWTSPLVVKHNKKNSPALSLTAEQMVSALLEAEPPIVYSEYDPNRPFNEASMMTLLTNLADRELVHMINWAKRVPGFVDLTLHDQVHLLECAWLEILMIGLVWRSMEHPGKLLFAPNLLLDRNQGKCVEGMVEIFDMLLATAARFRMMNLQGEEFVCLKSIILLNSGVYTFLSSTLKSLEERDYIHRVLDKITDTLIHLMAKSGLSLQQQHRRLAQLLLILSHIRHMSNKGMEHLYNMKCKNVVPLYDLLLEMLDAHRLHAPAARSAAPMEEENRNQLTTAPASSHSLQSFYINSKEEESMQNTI
UniProt P10275: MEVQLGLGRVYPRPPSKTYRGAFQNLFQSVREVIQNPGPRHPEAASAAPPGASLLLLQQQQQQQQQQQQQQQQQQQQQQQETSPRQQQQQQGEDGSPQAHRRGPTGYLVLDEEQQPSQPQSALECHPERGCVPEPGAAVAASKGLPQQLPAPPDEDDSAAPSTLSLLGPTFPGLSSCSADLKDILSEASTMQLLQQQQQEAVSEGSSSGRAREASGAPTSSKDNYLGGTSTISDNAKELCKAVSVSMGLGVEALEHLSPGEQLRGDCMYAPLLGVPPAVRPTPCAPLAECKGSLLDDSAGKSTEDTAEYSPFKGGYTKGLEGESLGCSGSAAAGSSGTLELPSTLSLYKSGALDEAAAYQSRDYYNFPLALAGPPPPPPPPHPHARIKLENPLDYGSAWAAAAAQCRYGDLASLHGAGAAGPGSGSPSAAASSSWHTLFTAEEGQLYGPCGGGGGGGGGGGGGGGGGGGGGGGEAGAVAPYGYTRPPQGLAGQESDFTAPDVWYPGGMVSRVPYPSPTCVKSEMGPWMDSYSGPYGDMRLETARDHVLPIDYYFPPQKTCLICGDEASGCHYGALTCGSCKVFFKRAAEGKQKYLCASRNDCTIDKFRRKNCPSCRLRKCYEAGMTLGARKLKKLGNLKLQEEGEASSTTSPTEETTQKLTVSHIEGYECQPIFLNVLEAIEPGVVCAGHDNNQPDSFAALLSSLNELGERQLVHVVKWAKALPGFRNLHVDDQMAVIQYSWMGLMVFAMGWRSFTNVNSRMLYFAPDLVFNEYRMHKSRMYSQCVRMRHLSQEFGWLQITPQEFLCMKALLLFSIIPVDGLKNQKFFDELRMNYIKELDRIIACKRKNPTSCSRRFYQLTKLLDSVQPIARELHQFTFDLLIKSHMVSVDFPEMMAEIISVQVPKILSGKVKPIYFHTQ
UniProt P00567: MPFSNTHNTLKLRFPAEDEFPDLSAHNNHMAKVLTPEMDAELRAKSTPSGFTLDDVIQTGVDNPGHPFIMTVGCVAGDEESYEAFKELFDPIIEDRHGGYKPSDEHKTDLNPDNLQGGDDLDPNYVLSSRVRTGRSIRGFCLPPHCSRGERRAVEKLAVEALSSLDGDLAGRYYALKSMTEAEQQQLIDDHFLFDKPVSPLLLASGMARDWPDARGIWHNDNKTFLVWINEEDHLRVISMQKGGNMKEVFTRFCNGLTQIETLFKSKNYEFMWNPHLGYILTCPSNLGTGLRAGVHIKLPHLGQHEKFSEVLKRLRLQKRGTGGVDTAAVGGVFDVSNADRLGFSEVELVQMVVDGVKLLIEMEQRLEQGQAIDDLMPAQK
UniProt Q95136, whole entry, looked up: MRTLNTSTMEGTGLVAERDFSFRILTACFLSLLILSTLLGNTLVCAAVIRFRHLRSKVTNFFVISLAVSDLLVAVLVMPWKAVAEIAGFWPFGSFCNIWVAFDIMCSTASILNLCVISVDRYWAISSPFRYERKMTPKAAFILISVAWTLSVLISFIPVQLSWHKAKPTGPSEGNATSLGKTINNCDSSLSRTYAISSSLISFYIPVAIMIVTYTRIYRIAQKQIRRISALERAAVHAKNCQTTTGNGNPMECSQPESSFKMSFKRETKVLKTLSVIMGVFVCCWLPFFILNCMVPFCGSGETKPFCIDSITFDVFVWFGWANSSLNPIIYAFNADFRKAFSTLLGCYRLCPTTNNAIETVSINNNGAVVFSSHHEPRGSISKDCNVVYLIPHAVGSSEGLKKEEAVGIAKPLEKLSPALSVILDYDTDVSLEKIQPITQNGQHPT
UniProt P47898, whole entry, looked up: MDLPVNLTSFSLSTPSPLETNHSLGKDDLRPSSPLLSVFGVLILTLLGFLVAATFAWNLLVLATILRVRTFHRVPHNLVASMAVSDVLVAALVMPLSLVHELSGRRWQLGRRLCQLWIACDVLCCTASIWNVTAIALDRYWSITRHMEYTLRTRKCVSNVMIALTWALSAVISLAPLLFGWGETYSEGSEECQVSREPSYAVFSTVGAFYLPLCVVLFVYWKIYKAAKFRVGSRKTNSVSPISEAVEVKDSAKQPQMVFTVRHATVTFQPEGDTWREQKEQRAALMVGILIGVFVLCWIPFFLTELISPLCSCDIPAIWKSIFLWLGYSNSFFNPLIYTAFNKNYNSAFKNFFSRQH
UniProt P41144: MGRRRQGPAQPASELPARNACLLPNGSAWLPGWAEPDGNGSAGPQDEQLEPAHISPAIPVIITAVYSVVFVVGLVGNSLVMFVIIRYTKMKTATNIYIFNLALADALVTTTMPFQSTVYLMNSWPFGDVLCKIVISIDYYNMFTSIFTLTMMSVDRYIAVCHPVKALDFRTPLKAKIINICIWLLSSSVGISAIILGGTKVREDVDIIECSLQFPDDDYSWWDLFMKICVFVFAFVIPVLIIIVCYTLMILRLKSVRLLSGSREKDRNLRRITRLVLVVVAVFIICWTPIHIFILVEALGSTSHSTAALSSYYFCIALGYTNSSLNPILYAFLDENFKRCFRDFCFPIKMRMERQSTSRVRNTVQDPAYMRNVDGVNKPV
UniProt P08588, whole entry, looked up: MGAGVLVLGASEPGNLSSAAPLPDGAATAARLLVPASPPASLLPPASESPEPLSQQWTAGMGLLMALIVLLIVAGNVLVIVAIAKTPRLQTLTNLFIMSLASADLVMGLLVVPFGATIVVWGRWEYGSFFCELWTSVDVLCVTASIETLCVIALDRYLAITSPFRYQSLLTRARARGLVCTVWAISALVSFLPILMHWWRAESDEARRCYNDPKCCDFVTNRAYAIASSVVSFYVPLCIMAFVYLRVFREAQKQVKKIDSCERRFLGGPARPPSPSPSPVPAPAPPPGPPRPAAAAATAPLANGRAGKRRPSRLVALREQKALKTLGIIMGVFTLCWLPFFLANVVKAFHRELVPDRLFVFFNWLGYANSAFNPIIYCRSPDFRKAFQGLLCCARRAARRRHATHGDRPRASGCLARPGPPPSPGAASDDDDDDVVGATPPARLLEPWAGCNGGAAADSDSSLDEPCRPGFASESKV
UniProt P13945: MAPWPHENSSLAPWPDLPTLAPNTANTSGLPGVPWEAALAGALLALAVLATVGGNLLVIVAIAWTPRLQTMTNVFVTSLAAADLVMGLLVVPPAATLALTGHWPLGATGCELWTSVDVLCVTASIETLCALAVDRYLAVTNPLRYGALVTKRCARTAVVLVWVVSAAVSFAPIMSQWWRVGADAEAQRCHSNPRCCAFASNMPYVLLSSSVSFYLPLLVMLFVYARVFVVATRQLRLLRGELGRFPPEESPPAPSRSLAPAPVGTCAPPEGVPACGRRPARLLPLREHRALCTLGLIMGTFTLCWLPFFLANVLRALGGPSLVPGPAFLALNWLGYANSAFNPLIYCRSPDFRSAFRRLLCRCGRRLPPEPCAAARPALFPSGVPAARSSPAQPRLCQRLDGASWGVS
UniProt P21452, whole entry, looked up: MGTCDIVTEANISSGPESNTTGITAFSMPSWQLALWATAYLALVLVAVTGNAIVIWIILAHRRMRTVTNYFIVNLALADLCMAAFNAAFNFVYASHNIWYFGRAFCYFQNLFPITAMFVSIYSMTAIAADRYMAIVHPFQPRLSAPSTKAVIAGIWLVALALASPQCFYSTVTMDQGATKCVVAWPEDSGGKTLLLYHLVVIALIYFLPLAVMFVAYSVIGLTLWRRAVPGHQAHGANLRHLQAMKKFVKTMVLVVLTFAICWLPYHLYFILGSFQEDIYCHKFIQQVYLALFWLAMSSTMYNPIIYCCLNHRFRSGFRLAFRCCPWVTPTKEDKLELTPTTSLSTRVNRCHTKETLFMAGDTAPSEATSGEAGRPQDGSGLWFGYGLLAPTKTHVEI
UniProt P41143, whole entry, looked up: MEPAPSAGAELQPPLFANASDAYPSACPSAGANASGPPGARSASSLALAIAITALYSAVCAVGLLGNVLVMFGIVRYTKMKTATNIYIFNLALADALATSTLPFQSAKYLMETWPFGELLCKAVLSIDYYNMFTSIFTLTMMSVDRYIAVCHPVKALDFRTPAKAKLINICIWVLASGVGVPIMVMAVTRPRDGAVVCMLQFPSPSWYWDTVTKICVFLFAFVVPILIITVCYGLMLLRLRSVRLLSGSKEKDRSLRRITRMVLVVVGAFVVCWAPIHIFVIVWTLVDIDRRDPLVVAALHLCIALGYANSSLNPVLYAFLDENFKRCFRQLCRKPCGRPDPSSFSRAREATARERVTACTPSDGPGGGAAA
UniProt P19327, whole entry, looked up: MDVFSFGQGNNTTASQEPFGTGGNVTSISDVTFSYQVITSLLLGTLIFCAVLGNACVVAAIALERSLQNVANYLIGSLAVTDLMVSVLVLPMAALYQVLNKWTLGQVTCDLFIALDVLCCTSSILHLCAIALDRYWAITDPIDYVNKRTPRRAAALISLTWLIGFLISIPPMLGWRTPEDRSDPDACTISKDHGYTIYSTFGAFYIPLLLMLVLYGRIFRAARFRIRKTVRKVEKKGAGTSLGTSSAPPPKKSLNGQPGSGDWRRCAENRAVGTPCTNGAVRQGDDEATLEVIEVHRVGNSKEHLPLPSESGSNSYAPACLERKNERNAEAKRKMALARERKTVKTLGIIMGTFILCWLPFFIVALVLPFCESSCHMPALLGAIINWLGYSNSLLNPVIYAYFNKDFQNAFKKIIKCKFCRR
UniProt P35372, whole entry, looked up: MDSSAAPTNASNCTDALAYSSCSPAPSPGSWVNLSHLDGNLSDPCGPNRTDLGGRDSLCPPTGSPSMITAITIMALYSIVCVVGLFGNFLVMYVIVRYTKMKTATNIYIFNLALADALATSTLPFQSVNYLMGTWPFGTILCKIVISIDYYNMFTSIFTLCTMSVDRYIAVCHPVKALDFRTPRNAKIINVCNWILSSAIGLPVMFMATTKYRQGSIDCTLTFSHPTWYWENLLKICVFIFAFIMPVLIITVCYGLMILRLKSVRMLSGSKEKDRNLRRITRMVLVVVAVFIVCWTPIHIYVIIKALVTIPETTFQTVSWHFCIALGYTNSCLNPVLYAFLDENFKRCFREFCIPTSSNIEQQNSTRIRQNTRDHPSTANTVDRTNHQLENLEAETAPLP

Columns and labels:
[1] = molecular target: human Thyroid hormone Receptor beta (TRb), THRB (gene 7068) (UniProt P10828); experiment: ATG_hTRb_XSP1: Attagene TRANS-FACTORIAL Multi-Species (XSP1) HepG2 Assay for human Thyroid hormone Receptor beta (TRb) (AID 2283808)
Outline: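 HepG2 cells transiently transfected with reporter units driving GAL4-UAS reporters for chimeric NR-Gal4 proteins; 24 h chemical exposure with 3 nM 6-alpha-fluorotestosterone present. Reporter mRNA quantified by RT-PCR and capillary electrophoresis, gain of signal versus DMSO.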

[2] = molecular target: zebrafish Thyroid Hormone Receptor beta (TRb), thrb (gene 30607) (UniProt Q9PVE4); experiment: ATG_zfTRb_XSP1: Attagene TRANS-FACTORIAL Multi-Species (XSP1) HepG2 Assay for zebrafish Thyroid Hormone Receptor beta (TRb) (AID 2283809)
Outline: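 HepG2 cells transiently transfected with multiplexed GAL4-UAS reporter units expressing chimeric zebrafish TRb–Gal4. Dosed 24 h with 3 nM 6-alpha-fluorotestosterone present; reporter mRNA measured by RT-PCR, HpaI digestion and capillary electrophoresis; gain of signal versus DMSO.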

[3] = molecular target: chicken Estrogen Receptor (ERa), ESR1 (gene 396099) (UniProt P06212); experiment: ATG_chERa_XSP2: Attagene TRANS-FACTORIAL Multi-Species (XSP2) HepG2 Assay for chicken Estrogen Receptor (ERa) (AID 2283817);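 note: actives raise reporter signal above DMSO so AC50 reflects ER activation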
Outline: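 Transiently transfected HepG2 cells expressing chimeric chicken ERa-GAL4 reporter units, dosed 24 h with 3 nM 6-alpha-fluorotestosterone and 1.5 nM norgestrel present. Reporter mRNA measured by RT-PCR and capillary electrophoresis; gain-of-signal fitted relative to DMSO.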

[4] = system: zebrafish Estrogen Receptor (ER2a), gene 317734; experiment: ATG_zfER2a_XSP2: Attagene TRANS-FACTORIAL Multi-Species (XSP2) HepG2 Assay for zebrafish Estrogen Receptor (ER2a) (AID 2283818);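 note: hits raise reporter mRNA so AC50 reflects activation of zebrafish ER2a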
Outline: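 HepG2 cells transiently transfected with GAL4-UAS reporter units and chimeric zebrafish ER2a-Gal4, exposed 24 h; medium contains 3 nM 6-alpha-fluorotestosterone and 1.5 nM norgestrel. Reporter mRNA quantified by RT-PCR, HpaI digestion, capillary electrophoresis; gain versus DMSO.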

[5] = molecular target: human Androgen Receptor (AR), AR (gene 367) (UniProt P10275); experiment: ATG_hAR_XSP2: Attagene TRANS-FACTORIAL Multi-Species (XSP2) HepG2 Assay for human Androgen Receptor (AR) (AID 2283820)
Outline: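 HepG2 cells transiently transfected with GAL4-UAS reporter units driven by chimeric NR-Gal4 proteins, stimulated with 3 nM 6-alpha-fluorotestosterone plus 1.5 nM norgestrel. Reporter mRNA quantified 24 h after dosing by RT-PCR and capillary electrophoresis; gain-of-signal versus DMSO.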

[6] = system: frog Estrogen Receptor (ER2), gene 100174814; experiment: ATG_frER2_XSP2: Attagene TRANS-FACTORIAL Multi-Species (XSP2) HepG2 Assay for frog Estrogen Receptor (ER2) (AID 2283828)
Outline: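 HepG2 cells transiently transfected with multiplexed GAL4-UAS reporter units expressing chimeric frog ER2–Gal4 protein; reporter mRNA measured 24 h after chemical dosing by RT-PCR, fluorescent labeling and capillary electrophoresis. Gain-of-signal fitted relative to DMSO baseline.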

[7] = molecular target: rabbit Imidazoline 2 Central (I2C), CKB (gene 100009085) (UniProt P00567); experiment: NVS_ENZ_rabI2C: NovaScreen (NVS) Enzymatic Assay for rabbit Imidazoline 2 Central (I2C) (AID 2283228)
Outline: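 Rabbit brain membranes, cell-free; readout by filter-based scintillation counting 1.5 hours after dosing, loss of signal vs DMSO. Initial duplicate test at 25 uM, then concentration-response with 50 uM top concentration.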

[8] = molecular target: bovine Dopamine Receptor (DR), Non-selective Binding, DRD1 (gene 281125) (UniProt Q95136); experiment: NVS_GPCR_bDR_NonSelective: NovaScreen (NVS) G Protein-Coupled Receptor Assay for bovine Dopamine Receptor (DR), Non-selective Binding (AID 2283241)
Outline: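 Bovine striatal membranes; radioligand displacement read by filtration and scintillation counting 1 h after dosing, loss of signal vs DMSO. Screened in duplicate at 25 uM, then concentration-response for hits.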

[9] = system: bovine Histamine 1 Receptor (H1), gene 281231; experiment: NVS_GPCR_bH1: NovaScreen (NVS) G Protein-Coupled Receptor Assay for bovine Histamine 1 Receptor (H1) (AID 2283246)
Outline: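 Radioligand displacement on bovine cerebellar membranes, 1 h after dosing, filter-based scintillation read-out; loss of signal vs DMSO. Duplicate single-concentration screen at 25 uM, then concentration-response up to 50 uM for hits.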

[10] = molecular target: human Serotonin, 5-Hydroxytryptamine Receptor 5A (5HT5A), HTR5A (gene 3361) (UniProt P47898); experiment: NVS_GPCR_h5HT5A: NovaScreen (NVS) G Protein-Coupled Receptor Assay for human Serotonin, 5-Hydroxytryptamine Receptor 5A (5HT5A) (AID 2283251)
Outline: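 Cell-free radioligand displacement binding on HEK293-derived membrane protein, 1 h incubation, filter-based scintillation counting. Primary screen in duplicate at 25 uM, actives followed in concentration series; loss of signal fitted versus DMSO.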

[11] = molecular target: guinea pig Opioid, Kappa 1 Receptor (OpiateK), OPRK1 (gene 100135587) (UniProt P41144); experiment: NVS_GPCR_gOpiateK: NovaScreen (NVS) G Protein-Coupled Receptor Assay for guinea pig Opioid, Kappa 1 Receptor (OpiateK) (AID 2283252);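 note: radioligand displacement from kappa opioid receptor in guinea pig cerebellar membranes; active means reduced radioligand binding relative to DMSO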
Outline: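 Guinea pig cerebellar membranes, radioligand displacement with filter-based scintillation counting, 2 h after dosing. Primary screen single concentration 25 uM in duplicate; actives retested in concentration series; loss of binding fitted versus DMSO.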

[12] = molecular target: human Serotonin, 5-Hydroxytryptamine Receptor 7 (5HT7), HTR7 (gene 3363) (UniProt P34969); experiment: NVS_GPCR_h5HT7: NovaScreen (NVS) G Protein-Coupled Receptor Assay for human Serotonin, 5-Hydroxytryptamine Receptor 7 (5HT7) (AID 2283255);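 note: hits reduce specific radioligand binding relative to DMSO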
Outline: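 Radioligand displacement on membranes from CHO cells expressing human 5HT7, 1 h incubation, filter-based scintillation counting. Primary screen used a single 25 uM concentration in duplicate; actives were followed up in concentration series.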

[13] = molecular target: human Adrenergic, Beta 1 Receptor (Adrb1), ADRB1 (gene 153) (UniProt P08588); experiment: NVS_GPCR_hAdrb1: NovaScreen (NVS) G Protein-Coupled Receptor Assay for human Adrenergic, Beta 1 Receptor (Adrb1) (AID 2283258)
Outline: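 Cell-free radioligand displacement on receptor from human neuroepithelioma cells; 2 h after dosing, filter-based scintillation counting. Primary screen in duplicate at 25 uM, actives retested in concentration series; loss of signal vs DMSO baseline.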

[14] = molecular target: human Adrenergic, Beta 3 Receptor (Adrb3), ADRB3 (gene 155) (UniProt P13945); experiment: NVS_GPCR_hAdrb3: NovaScreen (NVS) G Protein-Coupled Receptor Assay for human Adrenergic, Beta 3 Receptor (Adrb3) (AID 2283262)
Outline: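 Membranes from SK-N-MC cells pretreated with isoproterenol and 8-bromo-cAMP were used in a radioligand competitive displacement binding assay. Binding was read by filter-based scintillation counting 1 hour after dosing. Primary screening was in duplicate at 25 uM, with concentration series in follow-up.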

[15] = molecular target: human Neurokinin, NK2 Receptor, TACR2 (gene 6865) (UniProt P21452); experiment: NVS_GPCR_hNK2: NovaScreen (NVS) G Protein-Coupled Receptor Assay for human Neurokinin, NK2 Receptor (AID 2283278);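 note: actives reduce bound radioligand signal relative to DMSO baseline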
Outline: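 Filter-based scintillation counting measured radioligand bound to receptor extracted from CHO cells, 4 hours after compound addition. Chemicals screened first at 25 uM in duplicate, with actives retested in concentration series relative to DMSO.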

[16] = molecular target: human Opioid Receptor Delta 1 (Opiate D1), OPRD1 (gene 4985) (UniProt P41143); experiment: NVS_GPCR_hOpiate_D1: NovaScreen (NVS) G Protein-Coupled Receptor Assay for human Opioid Receptor Delta 1 (Opiate D1) (AID 2283280)
Outline: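 Radioligand displacement on membranes from CHO cells expressing the receptor, read by filter scintillation counting 1 h after dosing. Duplicate single-point screen at 25 uM, then concentration series for actives; loss of signal versus DMSO.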

[17] = molecular target: rat Serotonin, 5-Hydroxytryptamine Receptor 1 (5HT1), Non-Selective Binding, Htr1a (gene 24473) (UniProt P19327); experiment: NVS_GPCR_r5HT1_NonSelective: NovaScreen (NVS) G Protein-Coupled Receptor Assay for rat Serotonin, 5-Hydroxytryptamine Receptor 1 (5HT1), Non-Selective Binding (AID 2283286)
Outline: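 Rat cortical membranes, radioligand displacement, 1 h incubation, read by filter scintillation. Primary screen in duplicate at 25 uM. Hits (e.g. ≥30% inhibition) went to concentration-response up to 50 uM, fitted as loss of binding versus DMSO.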

[18] = system: rabbit Platelet Activating Factor Receptor (PAF), gene 100354046; experiment: NVS_GPCR_rabPAF: NovaScreen (NVS) G Protein-Coupled Receptor Assay for rabbit Platelet Activating Factor Receptor (PAF) (AID 2283287)
Outline: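 Rabbit platelet membrane preparation; radioligand displacement read by filter-based scintillation counting 1 h after dosing, loss of signal versus DMSO. Primary screen in duplicate at 25 uM, actives followed up in concentration series.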

[19] = system: 5-hydroxytryptamine receptor 2C (pig); experiment: NVS_GPCR_p5HT2C: NovaScreen (NVS) G Protein-Coupled Receptor Assay for pig Serotonin, 5-Hydroxytryptamine Receptor 2C (5HT2C) (AID 2283288)
Outline: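 Pig choroid plexus membranes; radioligand competitive binding, filter-based scintillation counting, read 1 h after dosing. Primary screen in duplicate at 25 uM; actives then run as concentration series; loss of signal versus DMSO baseline.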

[20] = molecular target: human Opioid Receptor Mu (Opiate Mu), OPRM1 (gene 4988) (UniProt P35372); experiment: NVS_GPCR_hOpiate_mu: NovaScreen (NVS) G Protein-Coupled Receptor Assay for human Opioid Receptor Mu (Opiate Mu) (AID 2283290);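 note: hits lower bound tracer signal versus DMSO meaning displacement of the ligand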
Outline: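 CHO-derived receptor protein, cell-free; radioligand displacement, filtration + scintillation counting, read at 2.5 h. DMSO = negative control/baseline. Primary: 25 uM single conc, duplicate; secondary: concentration series.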

For `Cc1oc(-c2ccccc2)nc1CCOc1ccc(C[C@H](Nc2ccccc2C(=O)c2ccccc2)C(=O)O)cc1`, the AC50 [1] was inconclusive: 0.1 µM, the outcome [2] was “inactive” and the AC50 [3] was inconclusive: 0.09 µM. For the same compound, the AC50 [4] was inconclusive: 8.23e-06 µM, the AC50 [5] was inconclusive: 90 nM and the AC50 [6] was inconclusive: 0.00528 µM.

`Cc1cc(SC2=C(O)C[C@@](CCc3ccc(N)cc3)(C(C)C)OC2=O)c(C(C)(C)C)cc1CO` was tested, and the AC50 [7] was inconclusive: 25 µM, the AC50 [8] was inconclusive: 25 µM and the AC50 [9] was inconclusive: 0.106 µM. The AC50 [10] was inconclusive: 1.39 µM, the AC50 [11] was inconclusive: 25 µM and the AC50 [12] was inconclusive: 0.128 µM. For the same compound, the AC50 [13] was inconclusive: 26.8 µM, the AC50 [14] was inconclusive: 19.1 µM and the AC50 [15] was inconclusive: 6.98 µM. For the same compound, the AC50 [16] was inconclusive: 25 µM, the AC50 [17] was inconclusive: 25 µM and the AC50 [18] was inconclusive: 0.0834 µM. For the same compound, the AC50 [19] was inconclusive: 25 µM and the AC50 [20] was inconclusive: 25 µM.

With `CC(C)(c1cc(Br)c(O)c(Br)c1)c1cc(Br)c(O)c(Br)c1` the outcome [1] was “inactive”, the AC50 [2] was active: 13.9 µM and the AC50 [4] was inconclusive: 9.5 µM. The AC50 [6] was inconclusive: 2.55 µM.

In the case of `Oc1ccc2c(c1)OC[C@@H](N1CCC(O)(c3ccc(F)cc3)CC1)[C@H]2O`, the AC50 [8] is reported as inconclusive: 0.209 µM, the AC50 [9] is reported as inconclusive: 0.07 µM and the AC50 [10] is reported as inconclusive: 12.5 µM. The AC50 [11] was inconclusive: 12.5 µM, the AC50 [12] was inconclusive: 12.5 µM and the outcome [14] was “inactive”. For the same compound, the AC50 [17] was inconclusive: 0.00114 µM, the AC50 [18] was inconclusive: 12.5 µM and the outcome [19] was “inactive”.

With `BrCc1cccc(Oc2ccccc2)c1` the AC50 [5] was inconclusive: 44.4 µM and inconclusive: 28.4 µM.

In the case of `CCc1c(C)cc(N)c(CC)c1N`, the AC50 [20] is reported as active: 13 µM.

In the case of `CCc1cc(SCc2sc(-c3ccc(C(F)(F)F)cc3)nc2CN2CCN(c3ccc(OC)cc3)CC2)ccc1OCC(=O)O`, the AC50 [7] is reported as inconclusive: 25 µM, the AC50 [13] is reported as inconclusive: 40.5 µM and the AC50 [15] is reported as inconclusive: 33.8 µM. For the same compound, the AC50 [16] was active: 7.88 µM.

`CCCCC(CC)COC(=O)c1ccccc1C(=O)O` (stereo not given) was tested, and the AC50 [3] was active: 27.2 µM.
